Assay: peptide synthesis
Details: late stage modification step, trifluoroacetate, acetate or hydrochloride
In the case of “(N-benzyloxycarbonylglycyl)aminoethyl Ether”, the step yield is reported as “Yield=56%”.
In the case of “(R)-2-methoxycarbonyl-2-aminoethyl Ether Trifluoroacetate”, the step yield is reported as “Yield=4%”.
In the case of “(R)-3-hydroxy-2-aminopropyl Ether trifluoroacetate of above formula”, the step yield is reported as “Yield=41%”.
For “(s)-2-methoxycarbonyl-2-aminoethyl Ether Trifluoroacetate”, the step yield was “Yield=7%”.
In the case of “Glycylaminoethyloxy Ether as the Trifluoroacetate”, the step yield is reported as “Yield=49%”.
